No constants are given. Whether binding was seen depends on the method and setting.
Biological target: YtfK (bacterial two-hybrid fusion) (E. coli) (UniProt P0ADE2)
Assay: two-hybrid; bacterial two-hybrid (T18 and T25 fragments of B. pertussis adenylate cyclase, pUT18c and pKT25) in cya-deficient E. coli BTH101, 30 °C; X-Gal plates with IPTG and β-galactosidase assay

Protein sequences, listed by entry. Tags and fused reporters are not part of them. Lines headed by an entry give the natural chain unless they say otherwise; changes in a name come on top.
UniProt P0AG20: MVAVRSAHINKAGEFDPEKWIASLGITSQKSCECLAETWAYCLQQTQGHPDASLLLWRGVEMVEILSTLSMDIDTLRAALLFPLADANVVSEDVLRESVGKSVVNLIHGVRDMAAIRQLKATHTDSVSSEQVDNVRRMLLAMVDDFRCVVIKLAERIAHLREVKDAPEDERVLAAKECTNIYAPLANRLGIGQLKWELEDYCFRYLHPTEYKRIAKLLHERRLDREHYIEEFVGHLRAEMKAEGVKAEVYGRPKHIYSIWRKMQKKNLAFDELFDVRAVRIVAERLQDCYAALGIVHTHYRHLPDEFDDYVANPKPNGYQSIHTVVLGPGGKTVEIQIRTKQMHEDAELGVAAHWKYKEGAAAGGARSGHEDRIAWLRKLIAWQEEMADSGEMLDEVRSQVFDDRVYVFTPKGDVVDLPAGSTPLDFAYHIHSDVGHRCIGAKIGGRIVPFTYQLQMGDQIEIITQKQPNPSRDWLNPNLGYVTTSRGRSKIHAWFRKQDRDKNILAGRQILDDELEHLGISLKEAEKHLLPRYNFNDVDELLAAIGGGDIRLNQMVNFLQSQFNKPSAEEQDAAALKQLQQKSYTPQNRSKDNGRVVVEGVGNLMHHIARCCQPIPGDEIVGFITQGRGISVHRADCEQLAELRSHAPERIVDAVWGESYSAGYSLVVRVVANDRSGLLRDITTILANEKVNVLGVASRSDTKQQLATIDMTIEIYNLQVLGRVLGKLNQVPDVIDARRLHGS

In the case of “N-terminal enzymatic half of RelA (bacterial two-hybrid fusion) (from UniProt P0AG20) (domain or fragment)”, the binding is reported as “no binding”.

From publication PMC6917717
